Values of other authors, collected in patent publication US9446146B2, “Methods and agents for improving targeting of CD138 expressing tumor cells” (BIOTEST AG, priority 2007, dated 2016).
For at least one compound, name, drawing or mass did not settle the structure.

Conditions: cited from earlier work

Which “cytotoxicity relative to maytansine” value does the source give for `COc1cc2cc(c1Cl)N(C)C(=O)C[C@H](OC(=O)[C@H](C)N(C)C(=O)CCS)[C@]1(C)O[C@H]1[C@H](C)[C@@H]1C[C@@](O)(NC(=O)O1)[C@H](OC)/C=C/C=C(\C)C2` [DM1, N^2-deacetyl-N^2-(3-mercapto-1-oxopropyl)-maytansine] here?
Its value is 3- to 10 fold.
